Test results as given in patent US8569543B2, “CCR9 inhibitors and methods of use thereof” (Millennium Pharmaceuticals, Inc., priority 2002, dated 2013).
Some entries share one result that the patent states for a list of compounds.

Columns and labels:
human CCR9 receptors [1] = molecular target: T1, human CCR9 receptors (Homo sapiens, UniProt P51686); assay: FLIPR assay: inhibitors of TECK induced response in CHO cells over expressing recombinant human CCR9 and the Ga16 protein; type: cell-based; parameters: expressed in transfected cells; host or cells: Chinese Hamster Ovary (CHO) cells; conditions: inhibition of rhTECK induced response in CHO cells
T1 sequence (P51686 1-369): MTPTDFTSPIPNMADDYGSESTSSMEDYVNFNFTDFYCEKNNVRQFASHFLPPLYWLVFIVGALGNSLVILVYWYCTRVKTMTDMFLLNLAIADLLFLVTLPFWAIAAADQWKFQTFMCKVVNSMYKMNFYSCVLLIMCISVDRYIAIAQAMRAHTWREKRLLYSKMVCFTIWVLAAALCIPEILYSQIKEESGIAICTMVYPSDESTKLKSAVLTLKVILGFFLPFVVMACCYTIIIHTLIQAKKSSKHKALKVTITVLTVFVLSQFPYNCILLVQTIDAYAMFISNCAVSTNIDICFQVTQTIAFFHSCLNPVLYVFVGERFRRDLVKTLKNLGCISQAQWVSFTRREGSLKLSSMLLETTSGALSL

human CCR9 receptors [2] = molecular target: T1, human CCR9 receptors; assay: FMAT assay: inhibitors of TECK binding to human CCR9 receptors; conditions: inhibition of binding of human TECK to human CCR9 receptors

Row | SMILES | IC50 (human CCR9 receptors [1]) | IC50 (human CCR9 receptors [2])
1 | COc1ccc(S(=O)(=O)Nc2ccc(Cl)cc2C(=O)c2cccc(Cl)c2)cc1 [Example 74, N-[4-Chloro-2-(3-chloro-benzoyl)-phenyl]-4-methoxy-benzenesulfonamide] | ≤ 1000 nM | ≤ 1000 nM
2 | O=C(c1ccccc1)c1cc(Cl)ccc1NS(=O)(=O)c1ccc(-c2cnco2)s1 [Example 73, 5-Oxazol-5-yl-thiophene-2-sulfonic acid (2-benzoyl-4-chloro-phenyl)-amide] | ≤ 1000 nM | ≤ 1000 nM
3 | CC(C)Cc1ccc(S(=O)(=O)Nc2ccc(Cl)cc2C(=O)c2ccncc2)cc1 [Example 34, N-[4-Chloro-2-(pyridine-4-carbonyl)-phenyl]-4-isobutyl-benzenesulfonamide] | ≤ 1000 nM | ≤ 1000 nM
4 | O=C(c1ccccc1)c1cc(Cl)ccc1NS(=O)(=O)c1csc2ccccc12 [Example 115, Benzo[b]thiophene-3-sulfonic acid (2-benzoyl-4-chloro-phenyl)-amide] | – | ≤ 1000 nM
5 | CCc1ccc(S(=O)(=O)Nc2ccc([N+](=O)[O-])cc2C(=O)c2cccc(C(F)(F)F)c2)cc1 [Example 19, 4-Ethyl-N-[4-nitro-2-(3-trifluoromethyl-benzoyl)-phenyl]-benzenesulfonamide] | ≤ 1000 nM | ≤ 1000 nM
6 | CC(C)c1ccc(S(=O)(=O)Nc2ccc(Br)cc2C(=O)c2ccccc2)cc1 [Example 18, N-(2-Benzoyl-4-bromo-phenyl)-4-isopropyl-benzenesulfonamide] | ≤ 1000 nM | ≤ 1000 nM
7 | CC(C)Oc1ccc(S(=O)(=O)Nc2ccc([N+](=O)[O-])cc2C(=O)c2ccccc2)cc1 [Example 70, N-(2-Benzoyl-4-nitro-phenyl)-4-isopropoxy-benzenesulfonamide] | ≤ 1000 nM | ≤ 1000 nM
8 | CCc1ccc(S(=O)(=O)Nc2ccc(Cl)cc2C(=O)c2ccncc2)cc1 [Example 44, N-[4-Chloro-2-(pyridine-4-carbonyl)-phenyl]-4-ethyl-benzenesulfonamide] | ≤ 1000 nM | ≤ 1000 nM
9 | CCOc1ccc(S(=O)(=O)Nc2ccc(Cl)cc2C(=O)c2ccncc2)cc1 [Example 32, N-[4-Chloro-2-(pyridine-4-carbonyl)-phenyl]-4-ethoxy-benzenesulfonamide] | ≤ 1000 nM | ≤ 1000 nM
10 | CCc1ccc(S(=O)(=O)Nc2ccc(Cl)cc2C(=O)c2cccc(C)c2)cc1 [Example 20, N-[4-Chloro-2-(3-methyl-benzoyl)-phenyl]-4-ethyl-benzenesulfonamide] | ≤ 1000 nM | ≤ 1000 nM
11 | COc1ccc(S(=O)(=O)Nc2ccc(Br)cc2C(=O)c2ccccc2)cc1 [Example 17, N-(2-Benzoyl-4-bromo-phenyl)-4-methoxy-benzenesulfonamide] | ≤ 1000 nM | ≤ 1000 nM
12 | O=C(c1ccccc1)c1cc(Br)ccc1NS(=O)(=O)c1ccc(Cl)cc1 [Example 21, N-(2-Benzoyl-4-bromo-phenyl)-4-chloro-benzenesulfonamide] | – | ≤ 1000 nM
13 | Cc1ccc(S(=O)(=O)Nc2ccc(Br)cc2C(=O)c2ccccc2)cc1 [Example 86, N-(2-Benzoyl-4-bromo-phenyl)-4-methyl-benzenesulfonamide] | ≤ 1000 nM | –
14 | CC(C)Oc1ccc(S(=O)(=O)Nc2ccc(Cl)cc2S(=O)(=O)c2ccccc2)cc1 [Example 117, N-(2-Benzenesulfonyl-4-chloro-phenyl)-4-isopropoxy-benzenesulfonamide] | ≤ 1000 nM | –
15 | CC(C)c1ccc(S(=O)(=O)Nc2ccc(Cl)cc2C(=O)c2ccccc2)cc1 [Example 15, N-(2-Benzoyl-4-chloro-phenyl)-4-isopropyl-benzenesulfonamide] | ≤ 1000 nM | –
16 | O=C(c1ccccc1)c1cc(Cl)ccc1NS(=O)(=O)c1cccs1 [Example 8, Thiophene-2-sulfonic acid (2-benzoyl-4-chloro-phenyl)-amide] | ≤ 1000 nM | –

Row | SMILES | IC50 (human CCR9 receptors [1]) | IC50 (human CCR9 receptors [2])
17 | CC(C)Oc1ccc(S(=O)(=O)Nc2ncc(Cl)cc2C(=O)c2ccncc2)cc1 [Example 36, N-[5-Chloro-3-(pyridine-4-carbonyl)-pyridin-2-yl]-4-isopropoxy-benzenesulfonamide] | ≤ 1000 nM | –
18 | CC(C)Oc1ccc(S(=O)(=O)Nc2ccncc2C(=O)c2ccncc2)cc1 [Example 139, 4-Isopropoxy-N-[3-(pyridine-4-carbonyl)-pyridin-4-yl]-benzenesulfonamide] | ≤ 1000 nM | –
19 | CN(C)c1ccc(S(=O)(=O)Nc2ccc(Cl)cc2C(=O)c2ccccc2)cc1 [Example 89, N-(2-Benzoyl-4-chloro-phenyl)-4-dimethylamino-benzenesulfonamide] | ≤ 1000 nM | –
20 | CC(C)Nc1ccc(S(=O)(=O)Nc2ccc(Cl)cc2C(=O)c2ccccc2)cc1 [Example 132, N-(2-Benzoyl-4-chloro-phenyl)-4-isopropylamino-benzenesulfonamide] | ≤ 1000 nM | –
21 | CCOc1ccc(S(=O)(=O)Nc2ccc(Cl)cc2C(=O)c2ccccc2)cc1 [Example 22, N-(2-Benzoyl-4-chloro-phenyl)-4-ethoxy-benzenesulfonamide] | ≤ 1000 nM | –
22 | CC(C)Oc1ccc(S(=O)(=O)Nc2ccc(Cl)cc2Sc2ccccc2)cc1 [Example 116, N-(4-Chloro-2-phenylsulfanyl-phenyl)-4-isopropoxy-benzenesulfonamide] | ≤ 1000 nM | –
23 | CCc1ccc(S(=O)(=O)Nc2ccc(Cl)cc2C(=O)c2cccc(Cl)c2)cc1 [Example 76, N-[4-Chloro-2-(3-chloro-benzoyl)-phenyl]-4-ethyl-benzenesulfonamide] | ≤ 1000 nM | –
24 | Cn1nc(-c2ccc(S(=O)(=O)Nc3ccc(Cl)cc3C(=O)c3ccccc3)s2)cc1C(F)(F)F [Example 78, 5-(1-Methyl-5-trifluoromethyl-1H-pyrazol-3-yl)-thiophene-2-sulfonic acid (2-benzoyl-4-chloro-phenyl)-amide] | ≤ 1000 nM | –
25 | CC(C)Oc1ccc(S(=O)(=O)Nc2ncc([N+](=O)[O-])cc2C(=O)c2ccccc2)cc1 [Example 49, N-(3-Benzoyl-5-nitro-pyridin-2-yl)-4-isopropoxy-benzenesulfonamide] | ≤ 1000 nM | –
26 | CC(C)c1ccc(S(=O)(=O)Nc2ccc(Cl)cc2Sc2ccccn2)cc1 [Example 142, N-[4-Chloro-2-(pyridin-2-ylsulfanyl)-phenyl]-4-isopropyl-benzenesulfonamide] | ≤ 1000 nM | –
27 | CC(C)Oc1ccc(S(=O)(=O)Nc2ccc(Cl)cc2C(=O)c2ccccc2)cc1 [Example 24, N-(2-Benzoyl-4-chloro-phenyl)-4-isopropoxy-benzenesulfonamide] | ≤ 1000 nM | –
28 | O=C(c1ccccc1)c1cc(Cl)ccc1NS(=O)(=O)c1ccc(Br)cc1 [Example 87, N-(2-Benzoyl-4-chloro-phenyl)-4-bromo-benzenesulfonamide] | ≤ 1000 nM | –
29 | CC(C)Oc1ccc(S(=O)(=O)Nc2ncc(Cl)cc2C(=O)c2ccccc2)cc1 [Example 31, N-(3-Benzoyl-5-chloro-pyridin-2-yl)-4-isopropoxy-benzenesulfonamide] | ≤ 1000 nM | ≤ 1000 nM
30 | CCOc1ccc(S(=O)(=O)Nc2ccc(C(F)(F)F)cc2C(=O)c2ccncc2)cc1 [Example 121, 4-Ethoxy-N-[2-(pyridine-4-carbonyl)-4-trifluoromethyl-phenyl]-benzenesulfonamide] | ≤ 1000 nM | –
31 | CC(C)c1ccc(S(=O)(=O)Nc2ccc(Cl)cc2C(=O)c2ccncc2)cc1 [Example 33, N-[4-Chloro-2-(pyridine-4-carbonyl)-phenyl]-4-isopropyl-benzenesulfonamide] | ≤ 1000 nM | ≤ 1000 nM
